Publication PMC7522278
No constants are given. Whether binding was seen depends on the method and setting. Binding seen in cells or lysates may run through a third protein. These calls come from enrichment with a bait or labelling near it, and not all partners need be listed. For part of these data: No binding means not detected with the bait. For part of these data: Where a sequence is shown, tags or fusion partners need not be part of it.

Amino acid sequences for entries named in this document (tags omitted).
UniProt Q13164: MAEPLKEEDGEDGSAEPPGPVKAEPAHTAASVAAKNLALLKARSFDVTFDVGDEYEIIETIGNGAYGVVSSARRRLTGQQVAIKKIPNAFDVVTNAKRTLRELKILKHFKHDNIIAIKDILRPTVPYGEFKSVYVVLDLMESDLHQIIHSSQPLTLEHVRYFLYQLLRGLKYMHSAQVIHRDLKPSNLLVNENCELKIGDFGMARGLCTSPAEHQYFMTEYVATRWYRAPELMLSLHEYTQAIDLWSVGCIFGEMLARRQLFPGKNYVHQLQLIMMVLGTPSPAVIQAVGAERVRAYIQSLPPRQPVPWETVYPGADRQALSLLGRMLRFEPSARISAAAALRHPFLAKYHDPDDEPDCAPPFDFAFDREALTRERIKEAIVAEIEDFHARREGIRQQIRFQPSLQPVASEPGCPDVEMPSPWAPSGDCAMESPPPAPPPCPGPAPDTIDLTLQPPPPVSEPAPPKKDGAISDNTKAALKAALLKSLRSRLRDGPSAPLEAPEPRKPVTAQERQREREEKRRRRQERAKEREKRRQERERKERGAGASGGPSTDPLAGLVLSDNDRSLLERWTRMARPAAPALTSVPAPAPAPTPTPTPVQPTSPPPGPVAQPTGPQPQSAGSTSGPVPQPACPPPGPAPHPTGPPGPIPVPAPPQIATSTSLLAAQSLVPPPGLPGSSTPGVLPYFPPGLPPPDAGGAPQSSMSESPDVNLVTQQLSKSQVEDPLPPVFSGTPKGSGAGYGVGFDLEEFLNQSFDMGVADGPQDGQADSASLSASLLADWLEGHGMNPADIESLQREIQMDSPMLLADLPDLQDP
UniProt Q15418: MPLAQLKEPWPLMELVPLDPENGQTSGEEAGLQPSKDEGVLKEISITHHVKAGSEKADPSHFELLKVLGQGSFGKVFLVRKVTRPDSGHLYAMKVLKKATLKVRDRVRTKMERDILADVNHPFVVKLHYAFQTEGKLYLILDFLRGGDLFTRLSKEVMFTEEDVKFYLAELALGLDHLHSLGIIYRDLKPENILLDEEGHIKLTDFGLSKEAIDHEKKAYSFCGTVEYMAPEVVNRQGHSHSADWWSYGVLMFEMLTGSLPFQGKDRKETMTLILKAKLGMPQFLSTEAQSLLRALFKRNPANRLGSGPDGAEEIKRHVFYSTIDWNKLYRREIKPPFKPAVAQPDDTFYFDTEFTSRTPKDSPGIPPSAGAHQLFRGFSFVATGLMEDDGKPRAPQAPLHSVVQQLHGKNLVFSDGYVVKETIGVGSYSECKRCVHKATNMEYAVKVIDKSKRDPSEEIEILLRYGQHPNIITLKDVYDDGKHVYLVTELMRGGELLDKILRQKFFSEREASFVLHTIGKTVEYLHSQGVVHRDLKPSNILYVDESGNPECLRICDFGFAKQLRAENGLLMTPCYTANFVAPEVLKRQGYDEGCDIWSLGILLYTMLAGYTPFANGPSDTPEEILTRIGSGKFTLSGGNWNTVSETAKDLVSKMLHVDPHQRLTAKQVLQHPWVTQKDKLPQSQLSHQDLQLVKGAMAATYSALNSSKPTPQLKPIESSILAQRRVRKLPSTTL
UniProt P27361: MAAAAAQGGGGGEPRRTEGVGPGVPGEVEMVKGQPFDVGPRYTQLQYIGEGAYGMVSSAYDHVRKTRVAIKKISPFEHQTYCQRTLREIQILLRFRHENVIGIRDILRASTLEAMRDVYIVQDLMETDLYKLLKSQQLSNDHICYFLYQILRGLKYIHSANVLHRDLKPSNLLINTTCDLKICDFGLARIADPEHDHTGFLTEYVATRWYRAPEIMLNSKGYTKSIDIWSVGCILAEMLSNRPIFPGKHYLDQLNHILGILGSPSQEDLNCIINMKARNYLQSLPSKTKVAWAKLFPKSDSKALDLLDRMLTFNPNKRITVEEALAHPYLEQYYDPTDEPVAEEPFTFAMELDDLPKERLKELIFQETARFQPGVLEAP

Experiments:
Assay in all cases: affinity purification with mass spectrometry; tandem affinity purification of SFB-tagged bait from stable HEK293T lines: lysis in NETN buffer (100 mM NaCl, 1 mM EDTA, 20 mM Tris HCl, 0.5% NP-40), streptavidin beads, elution with biotin, S-protein agarose, 4 °C; MS, hits filtered by SAINT (HCIP)
control protein ERK5 = control protein ERK5 (UniProt Q13164)
[1] = target: T1, C-terminal SFB-tagged DHPS (human) (UniProt P49366)
T1 sequence: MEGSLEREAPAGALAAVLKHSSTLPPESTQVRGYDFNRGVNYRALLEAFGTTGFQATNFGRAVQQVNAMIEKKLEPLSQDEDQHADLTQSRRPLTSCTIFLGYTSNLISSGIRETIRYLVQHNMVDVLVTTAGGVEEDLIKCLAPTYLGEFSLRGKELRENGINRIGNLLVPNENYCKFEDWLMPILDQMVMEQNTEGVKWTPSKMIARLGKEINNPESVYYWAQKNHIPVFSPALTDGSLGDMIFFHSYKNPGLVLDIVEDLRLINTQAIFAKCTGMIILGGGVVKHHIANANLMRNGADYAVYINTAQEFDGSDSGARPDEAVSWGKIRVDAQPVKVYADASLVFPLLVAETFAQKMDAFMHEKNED

[2] = target: T2, N-terminal SFB-tagged DHPS (human) (UniProt P49366)
T2 sequence: T1 sequence

RPS6KA1 (from UniProt Q15418 1-735)
binding (control protein ERK5): no binding

endogenous ERK1 (from UniProt P27361 1-379) (enzyme)
binding [1]: binds
binding [2]: binds
